Results on one molecule are retold here after paper PMC12217004, “Evolutionary regulation of human Fas ligand (CD95L) by plasmin in solid cancer immunotherapy” (Nature Communications, 2025).

No constants are given. Whether binding was seen depends on the method and setting. Some results given as binding are weak or reduced against the parent protein; the word gives no strength. Tags and fused reporters may be left off the sequences shown.

This assay has as its target T1, human Fas ligand extracellular domain, shorter form, His-tagged (HuFasL^S, 134-281) (human), P48023.
T1 chain: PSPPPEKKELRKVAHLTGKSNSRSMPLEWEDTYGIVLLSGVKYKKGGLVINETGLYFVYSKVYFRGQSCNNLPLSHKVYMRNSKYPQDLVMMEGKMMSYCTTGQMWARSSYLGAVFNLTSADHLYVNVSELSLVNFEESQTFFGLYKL
As to the kind of experiment: non-reducing gel with 60% lowered SDS, FasL immunoblot; his-tagged human and murine FasL forms added onto murine 4T1 cells (also human OVCAR3 cells) for 2 hr in serum-free media; supernatant precipitated and loaded without boiling on non-reducing gels; both purified. To be noted: remark: other sources report otherwise.

B1: human Fas ligand extracellular domain, shorter form, His-tagged (HuFasL^S, 134-281), P48023 134-281 (domain or fragment)
chain: PSPPPEKKELRKVAHLTGKSNSRSMPLEWEDTYGIVLLSGVKYKKGGLVINETGLYFVYSKVYFRGQSCNNLPLSHKVYMRNSKYPQDLVMMEGKMMSYCTTGQMWARSSYLGAVFNLTSADHLYVNVSELSLVNFEESQTFFGLYKL
As to B1, the binding entry is “binds”.
